Experimental data from US20120171123A1, “USES AND COMPOSITIONS FOR TREATMENT OF RHEUMATOID ARTHRITIS” (priority 2006, published 2012).

System: MTX-naïve adult patients with early RA (<3 years)
Assay: Study J: escalation of injectable medicine from eow to weekly dosing
Type: in vivo, human
Conditions: MTX arm escalated placebo injections
Method: Study J was a 2-year, double-blind, active comparator-controlled, Phase III study. […] In patients receiving ADA+MTX or MTX monotherapy, the 7.5 mg MTX weekly dosage increased to 20 mg over 8 weeks, as tolerated and as needed. Monotherapy patients received either placebo pills (adalimumab arm) or placebo injections (MTX arm). Efficacy outcomes measured included ACR response, DAS28 remission, major clinical response, and radiographic change from baseline.
MTX optimization was required before starting weekly injections (to 20 mg weekly, maximum). Once initiated, weekly dosing of injectable medicine was to be maintained until end of study. Criteria for identification of dosage escalators were a sequence of 4 consecutive injections for which the interval for every two consecutive injections was ≦10 days, and/or that the date of escalation, defined as the second of the 4 injections, had to be on or after Week 16 in Year 1. […] Data are from the intention-to-treat (ITT) population, with missing data analyzed by non-responder imputation (NRI) for clinical measures and by linear imputation for total Sharp scores (TSS).

adalimumab: human anti-TNF mAb (HUMIRA, Abbott Laboratories), described in U.S. Pat. No. 6,090,382 as D2E7
Dosage Escalators (injectable medicine to weekly), % (Weeks 16-30): 22% | Dosage Escalators (injectable medicine to weekly), % (Year 1 (total)): 25%
